# Reference: patent US8092810B2, “Use of polypeptides having antimicrobial activity” (Novozymes A/S, priority 2006, dated 2012)
# B1: Lento: Bacillus licheniformis polypeptide having amino acids 1-85 of SEQ ID NO: 2, purified from ATCC 14580 fermentation broth (protein)
# chain: MKNHLYEKKKRKPLTRTIKATLAVLTMSIALVGGATVPSFAWVNPGYHYQYPSEGGTWRYGFVNAGLRSEYNHPTKVHGSTVQKL
# modifications: Bacillus licheniformis ATCC 14580
# How the values were obtained:
# [1] = Odor evaluation of soiled laundry, wash in buffer; details: panelists finding lowest odor with Lento
# [2] = Odor evaluation of soiled laundry, wash in liquid detergent; details: panelists finding lowest odor with Lento
molecule,measurement,setting,value
B1,"Preference (with Lento:without), share with Lento",[1]; Shirt 1,36%:64%
same,"Preference (with Lento:without), share with Lento",[1]; Shirt 2,43%:57%
same,"Preference (with Lento:without), share with Lento",[1]; Sock,86%:14%
same,"Preference (with Lento:without), share with Lento",[1]; T-shirt 1,100%:0%
same,"Preference (with Lento:without), share with Lento",[1]; T-shirt 2,71%:29%
same,"Preference (with Lento:without), share with Lento",[1]; Tea towel 1,64%:36%
same,"Preference (with Lento:without), share with Lento",[1]; Tea towel 2,64%:36%
same,"Preference (with Lento:without), share with Lento",[1]; Total,66%:34%
same,"Preference (with Lento:without), share with Lento",[2]; Shirt 1,50%:50%
same,"Preference (with Lento:without), share with Lento",[2]; Shirt 2,29%:71%
same,"Preference (with Lento:without), share with Lento",[2]; Sock,71%:29%
same,"Preference (with Lento:without), share with Lento",[2]; T-shirt 1,71%:29%
same,"Preference (with Lento:without), share with Lento",[2]; T-shirt 2,57%:43%
same,"Preference (with Lento:without), share with Lento",[2]; Tea towel 1,29%:71%
same,"Preference (with Lento:without), share with Lento",[2]; Tea towel 2,57%:43%
same,"Preference (with Lento:without), share with Lento",[2]; Total,52%:48%
